The target of this experiment is Sphingosine kinase 1 (SphK1), endogenous in RAW264.7 cells (mouse (endogenous in RAW264.7)) (UniProt Q8CI15). The experiment is described as follows: co-IP; lysates of LPS-stimulated (1 μg/ml, 16 h) RAW264.7 cells in RIPA buffer, precleared; primary antibody overnight at 4 °C, protein A/G magnetic beads; immunoblotting.

Chains of the proteins cited; added tags and fusions are not shown. Lines headed by an entry give the natural chain unless they say otherwise; changes in a name come on top.
UniProt Q8CI15: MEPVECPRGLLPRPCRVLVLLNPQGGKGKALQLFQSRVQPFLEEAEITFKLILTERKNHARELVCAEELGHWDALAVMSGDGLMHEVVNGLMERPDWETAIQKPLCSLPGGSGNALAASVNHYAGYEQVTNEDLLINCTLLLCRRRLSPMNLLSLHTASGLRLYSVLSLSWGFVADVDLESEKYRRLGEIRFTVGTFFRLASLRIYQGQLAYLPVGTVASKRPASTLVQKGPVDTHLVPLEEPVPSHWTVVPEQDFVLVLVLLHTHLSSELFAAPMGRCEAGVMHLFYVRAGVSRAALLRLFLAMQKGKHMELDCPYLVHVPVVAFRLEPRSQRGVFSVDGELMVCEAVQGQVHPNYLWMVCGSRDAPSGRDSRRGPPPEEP
UniProt Q6PHZ2: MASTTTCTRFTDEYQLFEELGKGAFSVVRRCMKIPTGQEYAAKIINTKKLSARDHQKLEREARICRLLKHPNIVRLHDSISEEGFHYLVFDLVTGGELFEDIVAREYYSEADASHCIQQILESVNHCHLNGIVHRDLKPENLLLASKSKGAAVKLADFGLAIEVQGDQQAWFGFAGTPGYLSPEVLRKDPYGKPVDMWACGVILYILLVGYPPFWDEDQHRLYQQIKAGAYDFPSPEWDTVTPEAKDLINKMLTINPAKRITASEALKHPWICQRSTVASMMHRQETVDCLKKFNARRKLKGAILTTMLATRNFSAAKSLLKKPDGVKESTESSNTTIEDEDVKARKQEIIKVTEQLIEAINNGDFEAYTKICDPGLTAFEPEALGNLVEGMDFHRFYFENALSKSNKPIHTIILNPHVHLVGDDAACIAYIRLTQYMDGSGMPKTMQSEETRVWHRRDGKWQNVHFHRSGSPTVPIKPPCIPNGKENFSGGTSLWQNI

Results are given in words; binding and its absence hold for the method and conditions named. In cells and extracts the contact can be indirect. Some results given as binding are weak or reduced against the parent protein; the word gives no strength.

For “Calcium/calmodulin protein kinase II-δ (CaMKII-δ), endogenous in RAW264.7 cells (from UniProt Q6PHZ2 1-499) (enzyme)”, the binding result is recorded as “binds”.

The values are drawn from PMC7719708.
